Data set [1] has as its system Nla III modification methylase (Neisseria lactamica NRCC 2118). Kind of data set: activity in cells. Particulars: methylated by Nla III methylase at CATG sites (position not given); in vivo modification protects plasmids from BspH I, Sph I and Nla III digestion; protein in cells; only the motif is given.
Data set [2] concerns Nla III restriction endonuclease (Neisseria lactamica NRCC 2118). Kind of data set: enzyme reaction in vitro. To be noted: protein in a lysate after overexpression, only the motif is given.

Data on two sequences can be found in patent publication US5278060.

Construct, isoform or probe ends are uncertain for at least one entry. For part of these data: A negative result means that nothing was seen under these conditions.

As for “CATG (double strand) [Nla III methylase clone plasmids modified in vivo]”, the “activity on this sequence” value in data set [1] is “active”; in data set [2] (methylated by Nla III methylase at CATG sites (position not given), methylase clone plasmids resistant to Nla III digestion (also BspH I, Sph I), enzyme source for this digestion not stated), “not active”.
Take “CATG (double strand) [phage lambda DNA (CATG sites)]”: the “activity on this sequence” value in data set [2] (crude extract, 37 C 1 h, about 2x10^4 units per gram of cells) was “active”.
